For at least one entry, the source does not settle the construct or the ends of the probe. For some assays here: Weaker means in comparison with the reference protein, sequence or condition of that experiment. For some assays here: Where a protein sequence is shown, tags need not be part of it.
Experiments:
Experiment in all cases: EMSA
[1] = biological target: ERRalpha DBD (UniProt P11474); details: EMSA: 50 nM bacterially purified protein, 60 ng poly(dI-dC); recombinant protein; protein details: GST
[2] = biological target: ERRalpha FL (UniProt P11474); details: EMSA: 50 nM bacterially purified protein, 60 ng poly(dI-dC); recombinant protein; protein details: GST
[3] = biological target: T1, CUX1 CR1CR2 (UniProt P39880); details: strong complex; EMSA: 50 nM bacterially purified protein, 60 ng poly(dI-dC); recombinant protein; protein details: N-terminal His
T1 sequence (looked up, limits assumed): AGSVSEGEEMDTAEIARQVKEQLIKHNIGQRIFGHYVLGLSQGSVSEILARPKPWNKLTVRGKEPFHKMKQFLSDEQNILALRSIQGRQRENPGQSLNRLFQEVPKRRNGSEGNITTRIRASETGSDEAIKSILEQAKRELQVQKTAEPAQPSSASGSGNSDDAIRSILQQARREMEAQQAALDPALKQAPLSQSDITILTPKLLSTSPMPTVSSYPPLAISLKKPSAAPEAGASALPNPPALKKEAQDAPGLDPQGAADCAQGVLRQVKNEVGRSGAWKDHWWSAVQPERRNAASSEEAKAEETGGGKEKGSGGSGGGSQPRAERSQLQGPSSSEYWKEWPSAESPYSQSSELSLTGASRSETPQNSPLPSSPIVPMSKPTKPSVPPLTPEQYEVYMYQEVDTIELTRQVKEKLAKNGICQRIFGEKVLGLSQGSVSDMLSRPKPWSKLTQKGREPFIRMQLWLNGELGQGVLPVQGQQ

Chains of the proteins cited; added tags and fusions are not shown. Residues count along the entry.
UniProt P11474, 76-151: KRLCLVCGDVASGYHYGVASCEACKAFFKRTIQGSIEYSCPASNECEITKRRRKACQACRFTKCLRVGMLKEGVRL

[4] = biological target: T2, CUX1 CR1 (UniProt P39880); details: only a weak complex; EMSA: 50 nM bacterially purified protein, 60 ng poly(dI-dC); recombinant protein; protein details: N-terminal His
T2 sequence (looked up, limits assumed): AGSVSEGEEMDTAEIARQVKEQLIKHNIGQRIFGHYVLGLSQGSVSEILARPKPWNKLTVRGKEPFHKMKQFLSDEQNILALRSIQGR

[5] = tested on: CUX1 Inh-CR1CR2; details: binding greatly reduced vs CR1CR2; EMSA: 50 nM bacterially purified protein, 60 ng poly(dI-dC); recombinant protein; protein details: N-terminal His

Row | Sequence | binding result [1] | binding result [2] | binding result [3] | binding result [4] | binding result [5]
1 | GCGTCCAGATGAAGATCAAAGAA (double strand) [ERRalpha consensus binding site] | binds | binds |  |  | 
2 | TCGAGAAATGAAGCTTATCGATATCGTCTCGA (double strand) [CUX1 consensus binding site] |  |  | binds | binds more weakly | binds more weakly

— PMC4414141
